The chains are these.
B1: tRNA (parent)
chain: GUUCCGUUGGCGUAAUGGUAACGCGUCUCCCUCCUAAGGAGAAGACUGCGGGUUCGAGUCCCGUACGGAACG

Variants at the floor of the assay are shown more often than the library holds them.

In the data set the parent is B1. Put plainly: yeast fitness relative to wild type (ratio to wild type); higher = fitter; tRNA-Arg(CCU), competitive growth, 37 C, YPD. Put shortly:
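Amplicons of the tRNA-Arg(CCU) gene were sequenced, 100-nucleotide paired-end, from the start population and from each end population of a pooled yeast competition. The competition, in six parallel replicates, lasted 24 hours in YPD at 37°C. Fitness relative to wild type was calculated from changes in genotype frequencies. Genotypes had to have ≥ 100 starting reads, and estimates < 0.5 were set to 0.5.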
As for C24G C49U G51A C61A, the yeast fitness is no more than 0.5.

In the case of C34U C55U, the yeast fitness is 0.569.

Consider G17C A21G U26G, for which the yeast fitness is no more than 0.5.

For U19G C49G C55G, the yeast fitness is no more than 0.5.

Consider C11U U19G A45C C60G, for which the yeast fitness was no more than 0.5.

As to U8A C11U U19C C46A G68U, the yeast fitness was no more than 0.5.

Take A15G G17C A21C: the yeast fitness is no more than 0.5.

With C11U U47A C60U A69C, the yeast fitness was no more than 0.5.

Consider U7A A20G A40U, for which the yeast fitness was no more than 0.5.

Consider C31A C34G C55G A57U C62U, for which the yeast fitness was no more than 0.5.

Regarding G12A A15C G58C, the yeast fitness is no more than 0.5.

Regarding C11A C22G C34A G41A, the yeast fitness is no more than 0.5.

Consider A43U A57G C61U, for which the yeast fitness was no more than 0.5.

A43G G56A: the yeast fitness came to 0.86.

With G23C U28A C55U A65G, the yeast fitness is no more than 0.5.

For A37C U64G, the yeast fitness came to 0.684.

In the case of G39C G48C A69C, the yeast fitness turned out to be 0.57.

For the variant A15G C22U U53G, the yeast fitness is no more than 0.5.

In the case of G6A C11A A14C U19C A36G C49U, the yeast fitness was no more than 0.5.

As for G18A A37C G67U, the yeast fitness is no more than 0.5.

Consider G10A A14G U47C, for which the yeast fitness was no more than 0.5.

Turning to U32C C33A G51C G68A, the yeast fitness is no more than 0.5.

As to C55G C60G, the yeast fitness was no more than 0.5.

For A20G C27U C49U A57G, the yeast fitness is no more than 0.5.

G25C C27A C30G A70U: the yeast fitness is no more than 0.5.

On to U32G G41C C46U A65U, for which the yeast fitness is no more than 0.5.

Turning to G18A C66A G68C, the yeast fitness is no more than 0.5.

On to A14U U19A C22U, for which the yeast fitness is no more than 0.5.

Take C46G G51C U53A: the yeast fitness was no more than 0.5.

In the case of U3C A14G G18A C30A A40G C55G U59A, the yeast fitness is no more than 0.5.

With C30A C31G U32A C55U G67C, the yeast fitness was no more than 0.5.

Regarding C27U C29G A42C C55G, the yeast fitness was no more than 0.5.

Turning to A20G C22U G51A A57G, the yeast fitness is no more than 0.5.

Take U7A C33A A57G: the yeast fitness is no more than 0.5.

As for A37C C46G, the yeast fitness was found to be 0.947.

With C11U A21C C27G G39C A65C, the yeast fitness is no more than 0.5.

Regarding C22G G23A U35A A57G C62A, the yeast fitness was no more than 0.5.

For the variant G23A G39C A70G, the yeast fitness is no more than 0.5.

For the variant C34A C62U A65G, the yeast fitness is no more than 0.5.

Take A15U G17A A70C: the yeast fitness was no more than 0.5.

G6C U8C A43U C61G C62A: the yeast fitness is no more than 0.5.

For G6C C22A C31G G68C, the yeast fitness is no more than 0.5.

Consider C11U U19G A20U, for which the yeast fitness amounted to 0.764.

For the variant A14G G52A, the yeast fitness came out at 0.631.

For the variant G10A G17A U19A C29U, the yeast fitness was no more than 0.5.

As for U7A G10C C22U C61U, the yeast fitness was no more than 0.5.

For G25A G56A A69C, the yeast fitness was found to be 0.773.

In the case of C34U G38A G41C A57U, the yeast fitness was no more than 0.5.

As to G10C A42C A43G, the yeast fitness is no more than 0.5.

For C11G U32G U54A U59A G67A, the yeast fitness was no more than 0.5.

As for U8C C30A C46G U54A, the yeast fitness was no more than 0.5.

In the case of C11G A14C A37C G44C C60G, the yeast fitness is no more than 0.5.

Take G25C C29G G41A C49U: the yeast fitness was no more than 0.5.

For G39C C62A C66U, the yeast fitness was no more than 0.5.

Take U7C C33U U59G: the yeast fitness was no more than 0.5.

As to C5A A21U U32A U54C C55G, the yeast fitness was no more than 0.5.

For G18A G41C C61U, the yeast fitness was no more than 0.5.

For the variant U8A C11G C29A C46G, the yeast fitness was no more than 0.5.

For U19A G23A C62G, the yeast fitness was no more than 0.5.

Regarding C31U A37G U47C G63A, the yeast fitness is no more than 0.5.

Turning to U13A C31G C46G A69C, the yeast fitness was no more than 0.5.

As for A37G U53A A57C, the yeast fitness was no more than 0.5.

Take C29G A37C G67U: the yeast fitness was no more than 0.5.

With A14U C34G C46A C62U G68A A69C, the yeast fitness was no more than 0.5.

As to A40U U53C G56A, the yeast fitness is no more than 0.5.

Turning to U32G G39C G52C G56A, the yeast fitness was no more than 0.5.

Regarding C27G C30G C66A, the yeast fitness is no more than 0.5.

Regarding A37G A45U C62U G68C, the yeast fitness was no more than 0.5.

On to A37C A45G A65C, for which the yeast fitness was no more than 0.5.

As to C24G U32G A36G C60A A65U, the yeast fitness is no more than 0.5.

For the variant U16C A40C A57G C61U, the yeast fitness was no more than 0.5.

C11U G18C A40C G63A: the yeast fitness was no more than 0.5.

In the case of C5A U8C A21G U54G, the yeast fitness is no more than 0.5.

As for C5U G18C U26G, the yeast fitness was no more than 0.5.

For G23C C27A A57U A69U, the yeast fitness is no more than 0.5.

Take C11U U32A G63A: the yeast fitness is no more than 0.5.

Regarding U3A C27U C31U A40U A45U C49G G63A, the yeast fitness was no more than 0.5.

For C4A C11U A14C G41A G48C C55A A65C, the yeast fitness is no more than 0.5.

On to C4U C27A A45C G50C, for which the yeast fitness is no more than 0.5.

In the case of G10A U26A A43G A70U, the yeast fitness was no more than 0.5.

Take C33A A42C A45C U47G: the yeast fitness was found to be 0.515.

As for C27G C31U C34A, the yeast fitness was no more than 0.5.

In the case of C33G A40U A65C, the yeast fitness is no more than 0.5.

Consider G10A G39C A40G C66G A69C, for which the yeast fitness is no more than 0.5.

These data come from the RNAGym collection of RNA variant scans (doi:10.1126/science.aae0568).
